Data taken from publication doi:10.1101/529222.
Numbering of substitutions follows the chain as printed. No constants are given. Whether binding was seen depends on the method and setting. Binding seen in cells or lysates may run through a third protein. Some binding calls cover weakened binding; strength is not graded here. For some of these results: Tags and fused reporters may be left off the sequences shown.

The chains behind the UniProt entries cited, without tags or fusion partners.
UniProt Q9C026: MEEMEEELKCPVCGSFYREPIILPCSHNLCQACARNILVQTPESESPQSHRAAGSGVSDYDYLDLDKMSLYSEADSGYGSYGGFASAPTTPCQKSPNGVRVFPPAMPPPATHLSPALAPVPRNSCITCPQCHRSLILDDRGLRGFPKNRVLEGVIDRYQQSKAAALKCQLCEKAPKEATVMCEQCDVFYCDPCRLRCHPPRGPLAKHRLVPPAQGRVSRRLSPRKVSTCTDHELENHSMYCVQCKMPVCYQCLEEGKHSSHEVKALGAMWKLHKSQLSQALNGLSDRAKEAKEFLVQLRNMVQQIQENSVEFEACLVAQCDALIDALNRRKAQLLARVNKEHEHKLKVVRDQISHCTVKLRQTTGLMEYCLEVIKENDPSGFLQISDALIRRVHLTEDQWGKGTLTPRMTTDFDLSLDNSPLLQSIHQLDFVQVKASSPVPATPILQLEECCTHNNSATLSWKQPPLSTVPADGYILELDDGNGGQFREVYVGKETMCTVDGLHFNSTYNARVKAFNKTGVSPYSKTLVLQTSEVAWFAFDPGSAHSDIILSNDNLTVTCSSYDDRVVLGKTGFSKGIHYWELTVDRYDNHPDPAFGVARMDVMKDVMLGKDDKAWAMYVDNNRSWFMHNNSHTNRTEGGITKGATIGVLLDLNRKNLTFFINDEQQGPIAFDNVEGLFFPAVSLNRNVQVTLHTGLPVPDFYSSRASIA
UniProt P50552: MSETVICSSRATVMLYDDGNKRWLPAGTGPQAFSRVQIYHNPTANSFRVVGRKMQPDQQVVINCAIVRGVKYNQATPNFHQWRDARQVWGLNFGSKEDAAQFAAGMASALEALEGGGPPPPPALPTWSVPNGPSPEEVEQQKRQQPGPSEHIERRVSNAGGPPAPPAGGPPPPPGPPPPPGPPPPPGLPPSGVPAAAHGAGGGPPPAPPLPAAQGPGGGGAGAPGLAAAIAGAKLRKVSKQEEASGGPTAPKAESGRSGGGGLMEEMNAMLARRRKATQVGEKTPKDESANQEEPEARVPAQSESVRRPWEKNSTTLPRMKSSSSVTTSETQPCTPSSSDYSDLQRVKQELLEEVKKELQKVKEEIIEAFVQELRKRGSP

What was measured:
Assay in all cases: co-IP
Myc-TRIM67 (mouse) = molecular target: T1, Myc-TRIM67 (mouse) (UniProt Q505D9)
T1 sequence: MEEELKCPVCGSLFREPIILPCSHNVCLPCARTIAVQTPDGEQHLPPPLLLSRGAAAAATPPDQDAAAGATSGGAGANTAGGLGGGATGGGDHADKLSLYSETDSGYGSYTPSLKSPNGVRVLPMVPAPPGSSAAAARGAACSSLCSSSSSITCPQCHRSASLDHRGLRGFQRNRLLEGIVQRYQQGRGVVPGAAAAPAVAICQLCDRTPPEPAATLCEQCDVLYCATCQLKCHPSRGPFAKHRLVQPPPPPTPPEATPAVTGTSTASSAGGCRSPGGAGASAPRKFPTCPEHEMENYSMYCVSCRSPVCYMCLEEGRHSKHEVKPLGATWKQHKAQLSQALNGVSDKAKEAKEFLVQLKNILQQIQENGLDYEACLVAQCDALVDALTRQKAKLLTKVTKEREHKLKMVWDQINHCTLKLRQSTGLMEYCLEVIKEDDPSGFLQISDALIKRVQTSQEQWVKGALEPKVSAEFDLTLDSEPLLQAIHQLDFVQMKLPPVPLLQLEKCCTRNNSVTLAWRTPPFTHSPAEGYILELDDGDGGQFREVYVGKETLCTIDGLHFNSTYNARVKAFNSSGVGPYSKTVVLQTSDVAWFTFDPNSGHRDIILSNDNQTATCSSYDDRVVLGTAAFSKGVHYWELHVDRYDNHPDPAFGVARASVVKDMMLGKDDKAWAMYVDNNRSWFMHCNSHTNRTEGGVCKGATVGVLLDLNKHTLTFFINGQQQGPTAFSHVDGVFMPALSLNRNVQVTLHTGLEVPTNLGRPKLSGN

[1] = molecular target: T2, Myc-TRIM67 ligase dead (mouse) (UniProt Q505D9)
T2 sequence: T1 sequence with C7A, C10A

MycTRIM67ΔRING (mouse) = molecular target: T3, MycTRIM67ΔRING (mouse) (UniProt Q505D9)
T3 sequence: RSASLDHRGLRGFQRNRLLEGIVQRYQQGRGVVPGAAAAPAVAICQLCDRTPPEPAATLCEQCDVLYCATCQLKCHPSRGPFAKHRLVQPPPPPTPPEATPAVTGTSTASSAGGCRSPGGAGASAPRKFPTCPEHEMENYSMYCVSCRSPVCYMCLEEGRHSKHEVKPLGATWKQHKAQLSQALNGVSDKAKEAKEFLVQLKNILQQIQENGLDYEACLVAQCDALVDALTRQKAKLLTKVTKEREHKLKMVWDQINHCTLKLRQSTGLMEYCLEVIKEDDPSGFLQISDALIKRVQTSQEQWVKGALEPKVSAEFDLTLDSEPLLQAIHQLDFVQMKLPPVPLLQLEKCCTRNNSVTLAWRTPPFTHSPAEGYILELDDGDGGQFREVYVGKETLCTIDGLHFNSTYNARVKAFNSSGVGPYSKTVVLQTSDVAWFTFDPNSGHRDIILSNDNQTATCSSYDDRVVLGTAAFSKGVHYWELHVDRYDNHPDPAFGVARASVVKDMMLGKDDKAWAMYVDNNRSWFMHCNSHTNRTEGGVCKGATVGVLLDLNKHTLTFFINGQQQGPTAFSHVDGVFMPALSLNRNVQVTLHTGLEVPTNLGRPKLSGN

myc-tagged TRIM9 (human) = myc-tagged TRIM9 (human) (UniProt Q9C026)

binding (Myc-TRIM67 (mouse)): binds
binding [1]: binds
binding (MycTRIM67ΔRING (mouse)): binds
binding (myc-tagged TRIM9 (human)): binds
Substance: GFP-VASP (from UniProt P50552 1-380)
